The target in assay [1] is myc-TPXV08 (Tanapox virus) (UniProt Q9DHV4). The experiment in a line: co-IP.
Assay [2] addresses myc-EPTV169 (Eptesipox virus). The experiment in a line: co-IP.

The chains behind the UniProt entries cited, without tags or fusion partners. Where a name states a change or a piece, a line headed by the entry shows the natural chain unless it says otherwise.
UniProt Q9DHV4: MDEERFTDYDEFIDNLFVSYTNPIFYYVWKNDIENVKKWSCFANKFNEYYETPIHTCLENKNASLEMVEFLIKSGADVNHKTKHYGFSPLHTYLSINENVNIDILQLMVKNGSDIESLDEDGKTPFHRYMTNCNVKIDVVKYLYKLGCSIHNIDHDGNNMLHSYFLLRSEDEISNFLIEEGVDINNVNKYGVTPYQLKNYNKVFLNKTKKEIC

These are yes or no findings as the source states them, for the method shown. Binding seen in cells or lysates may run through a third protein. For some assays here: Binding can be weak; no strength is given. Tags and fused reporters may be left off the sequences shown.

B1: human GFP-IFIT1 (protein, UniProt P09914 1-478)
chain: MSTNGDDHQVKDSLEQLRCHFTWELSIDDDEMPDLENRVLDQIEFLDTKYSVGIHNLLAYVKHLKGQNEEALKSLKEAENLMQEEHDNQANVRSLVTWGNFAWMYYHMGRLAEAQTYLDKVENICKKLSNPFRYRMECPEIDCEEGWALLKCGGKNYERAKACFEKVLEVDPENPESSAGYAISAYRLDGFKLATKNHKPFSLLPLRQAVRLNPDNGYIKVLLALKLQDEGQEAEGEKYIEEALANMSSQTYVFRYAAKFYRRKGSVDKALELLKKALQETPTSVLLHHQIGLCYKAQMIQIKEATKGQPRGQNREKLDKMIRSAIFHFESAVEKKPTFEVAHLDLARMYIEAGNHRKAEENFQKLLCMKPVVEETMQDIHFHYGRFQEFQKKSDVNAIIHYLKAIKIEQASLTRDKSINSLKKLVLRKLRRKALDLESLSLLGFVYKLEGNMNEALEYYERALRLAADFENSVRQGP
On to B1, for which the values for the binding entry in assay [1] and in assay [2] were “binds” and “no binding”, respectively.

Source of the values: PMC11957390.
